Experimental data published in PubChem BioAssay AID226 (DTP/NCI, 2004).
The list is a part of this screen's results and no random one: it is rich in T/C values a quarter to a half above the control, in often repeated tests (any T/C) and in doses without a T/C. Further doses and runs are listed elsewhere. T/C is the treated group as % of the vehicle group. Some doses have a count of surviving animals in place of a T/C: the source holds a T/C of zero for them, seemingly a mark for toxic or unscored doses. Some doses without a T/C left all or most animals alive at the check, yet need not have been tolerated: survival well below the control is almost never listed, so the zero probably covers shortened survival too. Counts of survivors are from the toxicity check (mostly the fifth day) where no day follows; animals may have died later. Schedule codes are those of the source, read here as Q, the interval in days (D) or hours (H), X, the number of doses. For survival time, this PubChem deposit counts one and a half times the control or more as active, and values a quarter to a half above the control carry no call in these data; other NCI protocols may use other cut-offs. Some T/C values are followed by the survivors on the day toxicity was checked, most often the fifth; without a count, all were alive then. Some entries hold several experiments; the results are listed from low to high. Brackets with × stand for listed records that agree.

Test system: B6C3F1 mice, intracerebral ependymoblastoma, median survival T/C
Assay: NCI In Vivo Anticancer Drug Screen. Data for tumor model Ependymoblastoma (intracerebral) in B6C3F1 mice
Conditions: T/C endpoint: median survival time, higher T/C = longer survival
Description: The antitumor activity of compounds was measured in mice bearing transplantable tumors. Survival or tumor size were measured and the results are expressed as the measurement made in the treated group (T) divided by the measurement made in the vehicle treated control group (C). The tumor model used in this assay is Ependymoblastoma (intracerebral) in B6C3F1 mice

O=NN(CCCl)C(=O)NC1CCCCC1
T/C (dose: 2.0 mg/kg/injection, schedule: Q01DX009 (ip), vehicle: Klucel (hydroxypropylcellulose) (HPC)): 125 % of control | T/C (dose: 3.0 mg/kg/injection, schedule: Q01DX009 (ip), vehicle: Klucel (hydroxypropylcellulose) (HPC)): 141 % of control | T/C (dose: 8.0 mg/kg/injection, schedule: Q01DX001 (ip), vehicle: saline + alcohol): 128 % of control | T/C (dose: 16.0 mg/kg/injection, schedule: Q01DX001 (ip), vehicle: saline + alcohol): 135 % of control | survivor count (dose: 32.0 mg/kg/injection, schedule: Q01DX009 (ip), vehicle: Klucel (hydroxypropylcellulose) (HPC)): 10 of 10 | survivor count (dose: 64.0 mg/kg/injection, schedule: Q01DX009 (ip), vehicle: Klucel (hydroxypropylcellulose) (HPC)): 8 of 10 | survivor count (dose: 75.7 mg/kg/injection, schedule: Q01DX001 (ip), vehicle: other): 7 of 10 | survivor count (dose: 256.0 mg/kg/injection, schedule: Q01DX001 (ip), vehicle: saline + alcohol): 6 of 10

c1ccc([C@H]2CN3CCSC3=N2)cc1
T/C (dose: 20.0 mg/kg/injection, schedule: Q01DX001 (ip), vehicle: saline): 92 [survivors not given], 96 [survivors not given], 99, 102 % of control [survivors not given] | T/C (dose: 40.0 mg/kg/injection, schedule: Q01DX001 (ip), vehicle: saline): 96 [survivors not given], 98 [survivors not given], 107, 110 % of control [survivors not given] | T/C (dose: 80.0 mg/kg/injection, schedule: Q01DX001 (ip), vehicle: saline): 98 [5 of 10 alive on day 9] and 108 % of control [survivors not given] | survivor count (dose: 80.0 mg/kg/injection, schedule: Q01DX005 (ip), vehicle: saline): 0 of 10 | survivor count (dose: 160.0 mg/kg/injection, schedule: Q01DX001 (ip), vehicle: saline): 0 of 10 on day 9

CN(C)N=Nc1ccc(C(=O)O)cc1
T/C (dose: 64.0 mg/kg/injection, schedule: Q01DX005 (ip), vehicle: saline with Tween-80): 139 % of control | T/C (dose: 128.0 mg/kg/injection, schedule: Q01DX005 (ip), vehicle: saline with Tween-80): 149 % of control | T/C (dose: 200.0 mg/kg/injection, schedule: Q01DX005 (ip), vehicle: saline with Tween-80): 133 % of control

NC(CSC(c1ccccc1)(c1ccccc1)c1ccccc1)C(=O)O (configuration not stated)
T/C (dose: 64.0 mg/kg/injection, schedule: Q01DX001 (ip), vehicle: Klucel (hydroxypropylcellulose) (HPC)): 88 [survivors not given], 106 [survivors not given], 107, 107 % of control [survivors not given] | T/C (dose: 128.0 mg/kg/injection, schedule: Q01DX001 (ip), vehicle: Klucel (hydroxypropylcellulose) (HPC)): 92 [survivors not given], 101 [survivors not given], 105 [9 of 10 alive], 108 % of control [survivors not given] | survivor count (dose: 128.0 mg/kg/injection, schedule: Q01DX005 (ip), vehicle: Klucel (hydroxypropylcellulose) (HPC)): 9 of 10 | T/C (dose: 256.0 mg/kg/injection, schedule: Q01DX001 (ip), vehicle: Klucel (hydroxypropylcellulose) (HPC)): 102 [survivors not given], 103 [survivors not given] (2×), 122 % of control | survivor count (dose: 256.0 mg/kg/injection, schedule: Q01DX005 (ip), vehicle: Klucel (hydroxypropylcellulose) (HPC)): 3 of 10 | survivor count (dose: 512.0 mg/kg/injection, schedule: Q01DX001 (ip), vehicle: Klucel (hydroxypropylcellulose) (HPC)): 3 of 10

CCCN(C)C(=O)N(CCCl)N=O
T/C (dose: 15.6 mg/kg/injection, schedule: Q01DX001 (ip), vehicle: saline + alcohol): 145 % of control | survivor count (dose: 250.0 mg/kg/injection, schedule: Q01DX001 (ip), vehicle: saline + alcohol): 7 of 10

O=C1NC(c2ccc(Cl)cc2)(c2ccc(Cl)cc2)C(=O)N1Cl
survivor count (dose: 100.0 mg/kg/injection, schedule: Q01DX009 (ip), vehicle: saline with Tween-80): 2 of 10 | survivor count (dose: 200.0 mg/kg/injection, schedule: Q01DX009 (ip), vehicle: saline with Tween-80): 1 of 10

COc1cc2c(cc1O)N=C[C@@H]1CCC(O)N1C2=O (mixture of isomers)
survivor count (dose: 16.0 mg/kg/injection, schedule: Q01DX005 (ip), vehicle: distilled water + Tween-80): 0 of 10

NC(=S)N/N=C/c1ccc(O)cn1
T/C (dose: 24.0 mg/kg/injection, schedule: Q01DX001 (ip), vehicle: saline): 91 [survivors not given], 100 [survivors not given], 101 [survivors not given], 106 % of control [survivors not given] | T/C (dose: 48.0 mg/kg/injection, schedule: Q01DX001 (ip), vehicle: saline): 91 [survivors not given], 93 [survivors not given], 104 [survivors not given], 106 % of control [survivors not given] | T/C (dose: 96.0 mg/kg/injection, schedule: Q01DX001 (ip), vehicle: saline): 87 [survivors not given], 101 [survivors not given], 102 [survivors not given], 111 % of control [survivors not given] | T/C (dose: 192.0 mg/kg/injection, schedule: Q01DX001 (ip), vehicle: saline): 98 [survivors not given], 101 [survivors not given], 102 [survivors not given], 108 % of control [survivors not given]

Nc1ncn(C2OC(CO)C(O)C2O)c(=O)n1 (configuration not stated)
T/C (dose: 4.69 mg/kg/injection, schedule: Q03HX024 (ip), vehicle: saline): 141 % of control | survivor count (dose: 6.0 mg/kg/injection, schedule: Q01DX005 (ip), vehicle: saline): 10 of 10 | survivor count (dose: 18.75 mg/kg/injection, schedule: Q03HX024 (ip), vehicle: saline): 10 of 10 | survivor count (dose: 37.5 mg/kg/injection, schedule: Q03HX024 (ip), vehicle: saline): 10 of 10 | survivor count (dose: 75.0 mg/kg/injection, schedule: Q03HX024 (ip), vehicle: saline): 10 of 10

N=[N+]=CC(=O)CCC(NC(=O)C(CCC(=O)C=[N+]=N)NC(=O)CCC(N)C(=O)O)C(=O)O (configuration not stated)
T/C (dose: 0.1 mg/kg/injection, schedule: Q01DX001 (ip), vehicle: Klucel (hydroxypropylcellulose) (HPC)): 99, 105 [survivors not given], 109 % of control [survivors not given] (2×) | T/C (dose: 0.2 mg/kg/injection, schedule: Q01DX001 (ip), vehicle: Klucel (hydroxypropylcellulose) (HPC)): 97 [survivors not given], 99, 102 [survivors not given], 105 % of control [survivors not given] | T/C (dose: 0.4 mg/kg/injection, schedule: Q01DX001 (ip), vehicle: Klucel (hydroxypropylcellulose) (HPC)): 97, 100 [survivors not given], 101 [survivors not given], 103 % of control [survivors not given] | T/C (dose: 0.8 mg/kg/injection, schedule: Q01DX001 (ip), vehicle: Klucel (hydroxypropylcellulose) (HPC)): 100, 107 [survivors not given], 108 [survivors not given], 111 % of control [survivors not given]

Nc1nc2c(c(=O)[nH]1)N(C=O)C(CNc1ccc(C(=O)N[C@@H](CCC(=O)O)C(=O)O)cc1)CN2 (some centres not stated)
T/C (dose: 128.0 mg/kg/injection, schedule: Q01DX001 (ip), vehicle: saline): 98 [survivors not given], 99, 99 [survivors not given], 105 % of control [survivors not given] | T/C (dose: 256.0 mg/kg/injection, schedule: Q01DX001 (ip), vehicle: saline): 92, 93 [survivors not given], 99 [survivors not given], 103 % of control [survivors not given] | T/C (dose: 512.0 mg/kg/injection, schedule: Q01DX001 (ip), vehicle: saline): 91 [survivors not given], 99 [survivors not given], 100, 101 % of control [survivors not given] | T/C (dose: 1024.0 mg/kg/injection, schedule: Q01DX001 (ip), vehicle: saline): 87 [5 of 10 alive], 90 [survivors not given], 96 [survivors not given], 101 % of control [survivors not given] | survivor count (dose: 1024.0 mg/kg/injection, schedule: Q01DX005 (ip), vehicle: saline with Tween-80): 6 of 10 | survivor count (dose: 1024.0 mg/kg/injection, schedule: Q01DX005 (ip), vehicle: saline): 5 of 10 | survivor count (dose: 1800.0 mg/kg/injection, schedule: Q04DX003 (ip), vehicle: saline): 3 of 10
